Laboratory results taken from patent US8841077B2, “Biomarkers for amyotrophic lateral sclerosis and methods using the same” (Massachusetts General Hospital, priority 2006, dated 2014).

Experiment: Metabolomic profiling of blood plasma, 62 ALS subjects vs 62 control subjects (Example 3; Tables 7, 8)
Assay type: in vivo, human
Settings: blood plasma; ALS mean level compared to control mean level; positive = increase in ALS

Row | Compound | % change in ALS
1 | Cn1cncc1C[C@H](N)C(=O)O [Metabolite 3-methyl-L-histidine, 3-methyl-L-histidine] | 12%
2 | CC(C)C[C@H](NC(=O)CC[C@H](N)C(=O)O)C(=O)O [Metabolite - 2387 retired: gamma glu leu] | 63%
3 | N[C@@H](C[Se][Se]C[C@H](N)C(=O)O)C(=O)O [Selenocystine] | 19%
4 | Cc1cc2nc[nH]c2cc1C [Metabolite 5-6-Dimethylbenzimidazole-] | 2%
5 | C[C@@H]1NC(=O)N[C@@H]1CCCCCC(=O)O [Dethiobiotin] | 0%
6 | CN(C)C(N)=NCCC[C@H](N)C(=O)O [N-N-dimethylarginine] | −8%
7 | CC(=O)Nc1ccc(O[C@@H]2O[C@H](C(=O)O)[C@@H](O)[C@H](O)[C@H]2O)cc1 [p-acetamidophenyl-beta-D-gluguronide] | 137%
8 | O=C(O)C(=O)CS [Mercaptopyruvate] | −23%
9 | NCCc1ccc(O)cc1 [Tyramine] | 15%
10 | O=C1CC(C(=O)O)NC(=O)N1 (stereo not shown) [5-6-dihydroorotic acid] | −7%
11 | O=C(O)Cc1ccc(O)cc1 [Metabolite 4-hydroxyphenylacetate, 4-hydroxyphenylacetate] | −21%
12 | O=c1[nH]cnc2nc[nH]c12 [Metabolite - 1458 retired: hypoxanthine] | 3%
13 | OC[C@@H](O)C(O)[C@H](O)CO [D-arabitol] | −14%
14 | O=C(O)[C@@H]1C[C@@H](O)CN1 (relative stereo) [trans-4-hydroxyproline] | 10%
15 | NC(=O)C[C@H](N)C(=O)O [Asparagines] | −9%
16 | CCCCC/C=C\C/C=C\CCCCCCCC(=O)O [9-12-octadecadienoic acid-z-z-] | 3%
17 | vitamin-B6 | 5%
18 | O=C(O)CCCCCCCC(=O)O [Metabolite - 3881 retired: azelaic acid] | −29%
19 | NCCc1c[nH]c2ccc(O)cc12 [Serotonin] | 11%
20 | O=CC[C@@H](O)[C@H](O)[C@H](O)CO [Metabolite 2-deoxy-D-glucose, 2-deoxy-D-glucose] | 22%
21 | NC(=O)c1cccnc1 [Niacinamide] | 14%
22 | CC(=O)Nc1ccc(OS(=O)(=O)O)cc1 | 571%
23 | CCCCCCCCCCCC(=O)O [n-dodecanoate] | −13%
24 | O=c1[nH]cnc2nc[nH]c12 [Metabolite 1-7-dihydro-6h-purin-6-one] | −15%

Row | Compound | % change in ALS
25 | O=C1CC[C@@H](C(=O)O)N1 [Metabolite 5-oxoproline, 5-oxoproline] | −2%
26 | Lactate | 3% and −4%
27 | NCCCC[C@H](N)C(=O)O [Metabolite - 4032 retired: lysine] | −16%
28 | COc1ccc2[nH]cc(CCNC(C)=O)c2c1 [Melatonin] | −4%
29 | CC(C)C[C@H](NC(=O)CC[C@H](N)C(=O)O)C(=O)O [Metabolite - 2306 retired: gamma glu leu] | 6%
30 | Cc1ncc(COP(=O)(O)O)c(CN)c1O [pyridoxamine-phosphate] | 12%
31 | CC(O)C(=O)O (stereo not shown) [Metabolite - 2563 retired: lactate] | −1%
32 | C[C@](N)(Cc1ccc(O)c(O)c1)C(=O)O | 24%
33 | NCC(O)c1ccc(O)cc1 (stereo not shown) [Octopamine] | −2%
34 | O=C(O)Cc1c[nH]c2ccc(O)cc12 [Metabolite 5-hydroxyindoleacetate, 5-hydroxyindoleacetate] | 11%
35 | C[N+](C)(C)CCCC[C@H](N)C(=O)[O-] [Metabolite N-6-trimethyl-l-lysine] | −34%
36 | Nc1ccccc1C(=O)O [anthranilic acid] | −15%
37 | O=C(O)[C@@H](O)[C@@H](O)[C@H](O)[C@@H](O)C(=O)O [Glucarate] | 4%
38 | O=C(O)[C@@H](O)Cc1cnc[nH]1 [L-beta-imidazolelactic acid] | 4%
39 | O=C(O)C(=O)O [Metabolite - 1829 retired: oxalic acid] | 8%
40 | CC(=O)NCCc1c[nH]c2ccc(O)cc12 [N-acetylserotonin] | −8%
41 | C[C@H](CCC(=O)NCC(=O)O)[C@H]1CC[C@H]2[C@@H]3[C@H](O)C[C@@H]4C[C@H](O)CC[C@]4(C)[C@H]3C[C@H](O)[C@]12C | 39%
42 | C[C@H](CCCC(C)(C)O)[C@H]1CC[C@H]2[C@@H]3CC=C4C[C@@H](O)CC[C@]4(C)[C@H]3CC[C@]12C [Metabolite 25-hydroxycholesterol, 25-hydroxycholesterol] | 3%
43 | NC(N)=NCC(=O)O [guanidineacetic acid] | −5%
44 | NCCC(=O)N[C@@H](Cc1cnc[nH]1)C(=O)O [Carnosine] | −35%
45 | O=C(O)C(O)C(O)C(=O)O (stereo not shown) [tartaric acid] | −15%
46 | CCC(N)C(=O)O (stereo not shown) [Metabolite 2-amino-butyrate, 2-amino-butyrate] | 1%
47 | O=C1O[C@@H]([C@H](O)CO)[C@@H](O)[C@H]1O [gulono-1-4-lactone] | −3%
48 | O=P(O)(O)OC(CO)CO | −1%

Row | Compound | % change in ALS
49 | O=c1[nH]cnc2c1ncn2[C@H]1C[C@H](O)[C@@H](CO)O1 [Metabolite 2-deoxyinosine] | 293%
50 | C[C@H](O)[C@H](N)C(=O)O [L-allo-threonine] | −17%
51 | OC[C@@H](O)[C@@H](O)CO | −2%
52 | O=C1O[C@H]([C@H](O)CO)[C@H](O)[C@H]1O [glucono-gamma-lactone] | 7%
53 | O=S(=O)(O)Oc1c[nH]c2ccccc12 | 0%
54 | CC(=O)OP(=O)(O)O [Acetylphosphate] | −10%
55 | O=C[C@H](O)[C@@H](O)[C@H](O)[C@H](O)COP(=O)(O)O [glucose-6-phosphate] | 0%
56 | NCCCC[C@H](N)C(=O)O [Metabolite - 4043 retired: lysine] | 15%
57 | CCOC(=O)Cc1c[nH]c2ccccc12 [ethyl-3-indoleacetate] | 16%
58 | O=C(O)C(O)CO (stereo not shown) [Glycerate] | 3%
59 | OC[C@@]1(O)OC[C@H](O)[C@@H](O)[C@@H]1O [alpha-L-sorbopyranose] | 2%
60 | Cc1ncc(CO)c(CN)c1O [Pyridoxamine] | −3%
61 | NCCc1ccc(O)c(O)c1 [Dopamine] | −3%
62 | CC(O)C(=O)O (stereo not shown) [Metabolite - 2694 retired: lactate] | −3%
63 | O[C@H]1[C@H](O)[C@@H](O)[C@H](O)[C@@H](O)[C@H]1O [Metabolite - 3085 retired: inositol] | 4%
64 | CC(=O)N[C@H]1[C@H]([C@@H](O)[C@@H](O)CO)O[C@@](O)(C(=O)O)C[C@@H]1O [N-acetylneuraminate] | −8%
65 | O=C(O)C(O)Cc1ccc(O)cc1 (stereo not drawn) [alpha-4-dihydroxybenzenepropanoic acid] | −29%
66 | N[C@@H](Cc1c[nH]c2ccc(O)cc12)C(=O)O [Oxitryptan] | −7%
67 | NC(=O)N[C@@H](CC(=O)O)C(=O)O [N-carbamoyl-L-aspartate] | 54%
68 | C[C@H](CCC(=O)O)[C@H]1CC[C@H]2[C@@H]3[C@H](O)C[C@@H]4C[C@H](O)CC[C@]4(C)[C@H]3C[C@H](O)[C@]12C | 11%
69 | O=C1CC[C@@H](C(=O)O)N1 [Metabolite - 3894 retired: pyroglutamic acid (5-oxoproline)-] | 4%
70 | COc1ccc(/C=C/C(=O)O)c(OC)c1OC | −5%

Same assay, conditions: blood plasma; ALS mean level vs control mean level; 62 ALS vs 62 control subjects; analytical platform GC-MS

Row | Compound | % change in ALS [%]
71 | NCCc1ccc(O)cc1 [Tyramine] | 15
72 | O=C1CC(C(=O)O)NC(=O)N1 (stereo not shown) [5-6-dihydroorotic acid] | −7
73 | OC[C@@H](O)C(O)[C@H](O)CO [D-arabitol] | −14
74 | O=C(O)[C@@H]1C[C@@H](O)CN1 (relative stereo) [trans-4-hydroxyproline] | 10
75 | NC(=O)C[C@H](N)C(=O)O [Asparagines] | −9
76 | vitamin-B6 | 5
77 | O=CC[C@@H](O)[C@H](O)[C@H](O)CO [Metabolite 2-deoxy-D-glucose, 2-deoxy-D-glucose] | 22
78 | CCCCCCCCCCCC(=O)O [n-dodecanoate] | −13
79 | O=C1CC[C@@H](C(=O)O)N1 [Metabolite 5-oxoproline, 5-oxoproline] | −2
80 | Lactate | 3
81 | NCCCC[C@H](N)C(=O)O [Metabolite - 4032 retired: lysine] | −16
82 | COc1ccc2[nH]cc(CCNC(C)=O)c2c1 [Melatonin] | −4
83 | C[C@](N)(Cc1ccc(O)c(O)c1)C(=O)O | 24
84 | NCC(O)c1ccc(O)cc1 (stereo not shown) [Octopamine] | −2
85 | O=C(O)Cc1c[nH]c2ccc(O)cc12 [Metabolite 5-hydroxyindoleacetate, 5-hydroxyindoleacetate] | 11
86 | Nc1ccccc1C(=O)O [anthranilic acid] | −15

Row | Compound | % change in ALS [%]
87 | O=C(O)[C@@H](O)[C@@H](O)[C@H](O)[C@@H](O)C(=O)O [Glucarate] | 4
88 | O=C(O)[C@@H](O)Cc1cnc[nH]1 [L-beta-imidazolelactic acid] | 4
89 | CC(=O)NCCc1c[nH]c2ccc(O)cc12 [N-acetylserotonin] | −8
90 | C[C@H](CCCC(C)(C)O)[C@H]1CC[C@H]2[C@@H]3CC=C4C[C@@H](O)CC[C@]4(C)[C@H]3CC[C@]12C [Metabolite 25-hydroxycholesterol, 25-hydroxycholesterol] | 3
91 | O=C1O[C@@H]([C@H](O)CO)[C@@H](O)[C@H]1O [gulono-1-4-lactone] | −3
92 | CCCCC/C=C\C/C=C\CCCCCCCC(=O)O [9-12-octadecadienoic acid-z-z] | 3
93 | C[C@H](O)[C@H](N)C(=O)O [L-allo-threonine] | −17
94 | OC[C@@H](O)[C@@H](O)CO | −2
95 | O=C1O[C@H]([C@H](O)CO)[C@H](O)[C@H]1O [glucono-gamma-lactone] | 7
96 | NCCCC[C@H](N)C(=O)O [Metabolite - 4043 retired: lysine] | 15
97 | CCOC(=O)Cc1c[nH]c2ccccc12 [ethyl-3-indoleacetate] | 16
98 | NCCc1ccc(O)c(O)c1 [Dopamine] | −3
99 | O[C@H]1[C@H](O)[C@@H](O)[C@H](O)[C@@H](O)[C@H]1O [Metabolite - 3085 retired: inositol] | 4
100 | CC(=O)N[C@H]1[C@H]([C@@H](O)[C@@H](O)CO)O[C@@](O)(C(=O)O)C[C@@H]1O [N-acetylneuraminate] | −8
101 | O=C(O)C(O)Cc1ccc(O)cc1 (stereo not drawn) [alpha-4-dihydroxybenzenepropanoic acid] | −29
102 | C[C@H](CCC(=O)O)[C@H]1CC[C@H]2[C@@H]3[C@H](O)C[C@@H]4C[C@H](O)CC[C@]4(C)[C@H]3C[C@H](O)[C@]12C | 11

Same assay, conditions: blood plasma; ALS mean level vs control mean level; 62 ALS vs 62 control subjects; analytical platform LC-MS

Row | Compound | % change in ALS [%]
103 | Cn1cncc1C[C@H](N)C(=O)O [Metabolite 3-methyl-L-histidine, 3-methyl-L-histidine] | 12
104 | CC(C)C[C@H](NC(=O)CC[C@H](N)C(=O)O)C(=O)O [Metabolite - 2387 retired: gamma glu leu] | 63
105 | N[C@@H](C[Se][Se]C[C@H](N)C(=O)O)C(=O)O [Selenocystine] | 19
106 | CN(C)C(N)=NCCC[C@H](N)C(=O)O [N-N-dimethylarginine] | −8
107 | CC(=O)Nc1ccc(O[C@@H]2O[C@H](C(=O)O)[C@@H](O)[C@H](O)[C@H]2O)cc1 [p-acetamidophenyl-beta-D-gluguronide] | 137
108 | O=C(O)C(=O)CS [Mercaptopyruvate] | −23
109 | O=C(O)Cc1ccc(O)cc1 [Metabolite 4-hydroxyphenylacetate, 4-hydroxyphenylacetate] | −21
110 | O=c1[nH]cnc2nc[nH]c12 [Metabolite - 1458 retired: hypoxanthine] | 3
111 | O=C(O)CCCCCCCC(=O)O [Metabolite - 3881 retired: azelaic acid] | −29
112 | NCCc1c[nH]c2ccc(O)cc12 [Serotonin] | 11
113 | NC(=O)c1cccnc1 [Niacinamide] | 14
114 | CC(=O)Nc1ccc(OS(=O)(=O)O)cc1 | 571
115 | O=c1[nH]cnc2nc[nH]c12 [Metabolite 1-7-dihydro-6h-purin-6-one] | −15
116 | CC(C)C[C@H](NC(=O)CC[C@H](N)C(=O)O)C(=O)O [Metabolite - 2306 retired: gamma glu leu] | 6
117 | Cc1ncc(COP(=O)(O)O)c(CN)c1O [pyridoxamine-phosphate] | 12
118 | C[N+](C)(C)CCCC[C@H](N)C(=O)[O-] [Metabolite N-6-trimethyl-l-lysine] | −34
119 | O=C(O)C(=O)O [Metabolite - 1829 retired: oxalic acid] | 8
120 | C[C@H](CCC(=O)NCC(=O)O)[C@H]1CC[C@H]2[C@@H]3[C@H](O)C[C@@H]4C[C@H](O)CC[C@]4(C)[C@H]3C[C@H](O)[C@]12C | 39
121 | NC(N)=NCC(=O)O [guanidineacetic acid] | −5
122 | NCCC(=O)N[C@@H](Cc1cnc[nH]1)C(=O)O [Carnosine] | −35
123 | O=C(O)C(O)C(O)C(=O)O (stereo not shown) [tartaric acid] | −15
124 | O=c1[nH]cnc2c1ncn2[C@H]1C[C@H](O)[C@@H](CO)O1 [Metabolite 2-deoxyinosine] | 293
125 | CC(=O)OP(=O)(O)O [Acetylphosphate] | −10
126 | lactate | −4
127 | O=C(O)C(O)CO (stereo not shown) [Glycerate] | 3
128 | Cc1ncc(CO)c(CN)c1O [Pyridoxamine] | −3
129 | CC(O)C(=O)O (stereo not shown) [Metabolite - 2694 retired: lactate] | −3
130 | N[C@@H](Cc1c[nH]c2ccc(O)cc12)C(=O)O [Oxitryptan] | −7
131 | NC(=O)N[C@@H](CC(=O)O)C(=O)O [N-carbamoyl-L-aspartate] | 54
132 | O=C1CC[C@@H](C(=O)O)N1 [Metabolite - 3894 retired: pyroglutamic acid (5-oxoproline)-] | 4

Same assay, conditions: human, in vivo

Row | Compound | % change in ALS [%]
133 | O=C(O)[C@@H](O)[C@H](O)CO [Metabolite - 3020 retired: threonic acid] | 2

Values joined by “and” are separate entries in the source; they are usually repeats but may differ in a detail not shown here. Equal entries are not always repeated.
